{"source": "PubChem BioAssay AID1259425 (University of Nebraska Medical Center, 2018)", "purpose": "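Find knockdowns that reproduce the gene expression pattern seen when KSR1 is lost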 (primary screen)", "cell system": "HCT116 human colon cancer cells", "knock-down reagent": "siRNA pool against human genes, 50 nM siRNA", "read-out": "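mRNA of six signature genes measured together by branched-DNA assay after 50 nM siRNA pool, blank removed, divided by geometric mean of two housekeeping genes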", "scale": "BNIP3L mRNA: higher = more BNIP3L transcript after knockdown; NDRG1 mRNA: higher = more NDRG1 transcript after knockdown", "note": "In all, the deposit lists about 14,000 reagents; shown is a part drawn at random. Further read-outs or replicates are left out here. Reagent sequences are not shown. The record does not give: the time to read-out."}
{"gene symbol": "IL17C (interleukin 17C)", "BNIP3L mRNA, set 1": 0.12, "NDRG1 mRNA, set 1": 0.351}
{"gene symbol": "AKAP1 (A-kinase anchoring protein 1)", "BNIP3L mRNA, set 1": 0.333, "NDRG1 mRNA, set 1": 0.21}
{"gene symbol": "PLAT (plasminogen activator, tissue type)", "BNIP3L mRNA, set 1": 0.0948, "NDRG1 mRNA, set 1": 0.0835}
{"gene symbol": "COCH (cochlin)", "BNIP3L mRNA, set 1": 0.112, "NDRG1 mRNA, set 1": 0.229}
{"gene symbol": "SLC12A8", "BNIP3L mRNA, set 1": 0.16, "NDRG1 mRNA, set 1": 0.482}
{"gene symbol": "CRHR2 (corticotropin releasing hormone receptor 2)", "BNIP3L mRNA, set 1": 0.22, "NDRG1 mRNA, set 1": 1.36}
{"gene symbol": "MOB4 (MOB family member 4, phocein)", "BNIP3L mRNA, set 1": 0.149, "NDRG1 mRNA, set 1": 0.314}

Single entries from the entries so far:
MOB4 (MOB family member 4, phocein), NDRG1 mRNA, set 1 → 0.314
Entry of AKAP1 (A-kinase anchoring protein 1) in “BNIP3L mRNA, set 1”: 0.333

Further results follow:
{"gene symbol": "SGTB", "BNIP3L mRNA, set 1": 0.105, "NDRG1 mRNA, set 1": 0.178}
{"gene symbol": "NUSAP1 (nucleolar and spindle associated protein 1)", "BNIP3L mRNA, set 1": 0.143, "NDRG1 mRNA, set 1": 0.411}
{"gene symbol": "POLR1A (RNA polymerase I subunit A)", "BNIP3L mRNA, set 1": 0.395, "NDRG1 mRNA, set 1": 1.01}
{"gene symbol": "APBB1IP", "BNIP3L mRNA, set 1": 0.264, "NDRG1 mRNA, set 1": 0.16}
{"gene symbol": "ACVR2A (activin A receptor type 2A)", "BNIP3L mRNA, set 1": 0.0883, "NDRG1 mRNA, set 1": 0.0436}
